Laboratory results reported in US20110142812A1 (STC UNM, published 2011).
Results are given in words; binding and its absence hold for the method and conditions named. Some entries that bind do so weakly or less than the wild type.

By UniProt entry, the sequences of proteins in these tests, tags left out. Residues count along the entry.
UniProt P08101, residues 30-330: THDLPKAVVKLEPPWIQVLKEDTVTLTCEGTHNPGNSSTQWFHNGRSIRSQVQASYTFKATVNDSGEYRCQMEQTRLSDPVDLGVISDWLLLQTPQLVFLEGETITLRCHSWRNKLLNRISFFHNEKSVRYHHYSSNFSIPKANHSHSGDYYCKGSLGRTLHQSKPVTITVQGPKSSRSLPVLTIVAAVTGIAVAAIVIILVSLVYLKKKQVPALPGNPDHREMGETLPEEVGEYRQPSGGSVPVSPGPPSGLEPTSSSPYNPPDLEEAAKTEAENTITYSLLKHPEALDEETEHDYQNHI

Molecular target: mouse FcγRIIb on macrophages (mouse) (UniProt P08101)
Assay: two-color flow cytometry on mouse peritoneal macrophages (FcR γ-chain-/-), FITC-2C10 detection

B1: Y175L CRP (recombinant mutant C-reactive protein in which tyrosine 175 is replaced by leucine) (ligand)
chain: QTDMSRKAFVFPKESDTSYVSLKAPLTKPLKAFTVCLHFYTELSSTRGYSIFSYATKRQDNEILIFWSKDIGYSFTVGGSEILFEVPEVTVAPVHICTSWESASGIVEFWVDGKPRVRKSLKKGYTVGAEASIILGQEQDSFGGNFEGSQSLVGDIGNVNMWDFVLSPDEINTILLGGPFSPNVLNWRALKYEVQGEVFTKPQLWP
notes: also called CRP mutant Y175L; recombinant mutant CRP (Y175L)
In the case of B1, the binding is reported as “binds”.
